The assay addresses T1, CLN7 (human (endogenous in SH-SY5Y)) (UniProt Q8NHS3).
T1 sequence: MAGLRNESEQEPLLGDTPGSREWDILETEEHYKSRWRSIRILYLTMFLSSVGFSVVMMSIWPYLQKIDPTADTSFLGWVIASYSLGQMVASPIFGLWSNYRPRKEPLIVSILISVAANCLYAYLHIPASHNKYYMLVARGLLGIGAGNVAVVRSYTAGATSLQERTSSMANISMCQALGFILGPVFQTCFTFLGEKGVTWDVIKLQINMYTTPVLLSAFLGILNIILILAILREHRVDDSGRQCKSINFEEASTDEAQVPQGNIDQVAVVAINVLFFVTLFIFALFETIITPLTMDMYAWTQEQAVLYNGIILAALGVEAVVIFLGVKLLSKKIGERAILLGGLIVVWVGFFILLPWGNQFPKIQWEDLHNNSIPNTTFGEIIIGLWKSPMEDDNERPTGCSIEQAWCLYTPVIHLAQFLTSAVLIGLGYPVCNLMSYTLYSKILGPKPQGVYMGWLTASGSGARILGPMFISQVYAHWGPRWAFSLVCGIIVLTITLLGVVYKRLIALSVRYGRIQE
Kind of assay: affinity purification with mass spectrometry; endogenous CLN7 immunoprecipitated from 2.5 mg SH-SY5Y lysate with a polyclonal anti-CLN7 antibody raised against L9 (351-421aa, Proteintech) on G-sepharose beads; IgG as non-specific binding control; 4 independent replicates; cells under steady state culture conditions.

These are yes or no findings as the source states them, for the method shown. Binding seen in cells or lysates may run through a third protein. These calls come from enrichment with a bait or labelling near it, and not all partners need be listed.

B1: NCAPD3 (protein, UniProt P42695 1-1498)
chain: MVALRGLGSGLQPWCPLDLRLEWVDTVWELDFTETEPLDPSIEAEIIETGLAAFTKLYESLLPFATGEHGSMESIWTFFIENNVSHSTLVALFYHFVQIVHKKNVSVQYREYGLHAAGLYFLLLEVPGSVANQVFHPVMFDKCIQTLKKSWPQESNLNRKRKKEQPKSSQANPGRHRKRGKPPRREDIEMDEIIEEQEDENICFSARDLSQIRNAIFHLLKNFLRLLPKFSLKEKPQCVQNCIEVFVSLTNFEPVLHECHVTQARALNQAKYIPELAYYGLYLLCSPIHGEGDKVISCVFHQMLSVILMLEVGEGSHRAPLAVTSQVINCRNQAVQFISALVDELKESIFPVVRILLQHICAKVVDKSEYRTFAAQSLVQLLSKLPCGEYAMFIAWLYKYSRSSKIPHRVFTLDVVLALLELPEREVDNTLSLEHQKFLKHKFLVQEIMFDRCLDKAPTVRSKALSSFAHCLELTVTSASESILELLINSPTFSVIESHPGTLLRNSSAFSYQRQTSNRSEPSGEINIDSSGETVGSGERCVMAMLRRRIRDEKTNVRKSALQVLVSILKHCDVSGMKEDLWILQDQCRDPAVSVRKQALQSLTELLMAQPRCVQIQKAWLRGVVPVVMDCESTVQEKALEFLDQLLLQNIRHHSHFHSGDDSQVLAWALLTLLTTESQELSRYLNKAFHIWSKKEKFSPTFINNVISHTGTEHSAPAWMLLSKIAGSSPRLDYSRIIQSWEKISSQQNPNSNTLGHILCVIGHIAKHLPKSTRDKVTDAVKCKLNGFQWSLEVISSAVDALQRLCRASAETPAEEQELLTQVCGDVLSTCEHRLSNIVLKENGTGNMDEDLLVKYIFTLGDIAQLCPARVEKRIFLLIQSVLASSADADHSPSSQGSSEAPASQPPPQVRGSVMPSVIRAHAIITLGKLCLQHEDLAKKSIPALVRELEVCEDVAVRNNVIIVMCDLCIRYTIMVDKYIPNISMCLKDSDPFIRKQTLILLTNLLQEEFVKWKGSLFFRFVSTLIDSHPDIASFGEFCLAHLLLKRNPVMFFQHFIECIFHFNNYEKHEKYNKFPQSEREKRLFSLKGKSNKERRMKIYKFLLEHFTDEQRFNITSKICLSILACFADGILPLDLDASELLSDTFEVLSSKEIKLLAMRSKPDKDLLMEEDDMALANVVMQEAQKKLISQVQKRNFIENIIPIIISLKTVLEKNKIPALRELMHYLREVMQDYRDELKDFFAVDKQLASELEYDMKKYQEQLVQEQELAKHADVAGTAGGAEVAPVAQVALCLETVPVPAGQENPAMSPAVSQPCTPRASAGHVAVSSPTPETGPLQRLLPKARPMSLSTIAILNSVKKAVESKSRHRSRSLGVLPFTLNSGSPEKTCSQVSSYSLEQESNGEIEHVTKRAISTPEKSISDVTFGAGVSYIGTPRTPSSAKEKIEGRSQGNDILCLSLPDKPPPQPQQWNVRSPARNKDTPACSRRSLRKTPLKTAN
As for B1, the binding entry is on record as “binds”.

B2: PRKRA (protein, UniProt O75569 1-313)
chain: MSQSRHRAEAPPLEREDSGTFSLGKMITAKPGKTPIQVLHEYGMKTKNIPVYECERSDVQIHVPTFTFRVTVGDITCTGEGTSKKLAKHRAAEAAINILKANASICFAVPDPLMPDPSKQPKNQLNPIGSLQELAIHHGWRLPEYTLSQEGGPAHKREYTTICRLESFMETGKGASKKQAKRNAAEKFLAKFSNISPENHISLTNVVGHSLGCTWHSLRNSPGEKINLLKRSLLSIPNTDYIQLLSEIAKEQGFNITYLDIDELSANGQYQCLAELSTSPITVCHGSGISCGNAQSDAAHNALQYLKIIAERK
On to B2, for which the binding entry is given as “binds”.

B3: NUFIP2 (protein, UniProt Q7Z417 1-695)
chain: MEEKPGQPQPQHHHSHHHPHHHPQQQQQQPHHHHHYYFYNHSHNHHHHHHHQQPHQYLQHGAEGSPKAQPKPLKHEQKHTLQQHQETPKKKTGYGELNGNAGEREISLKNLSSDEATNPISRVLNGNQQVVDTSLKQTVKANTFGKAGIKTKNFIQKNSMDKKNGKSYENKSGENQSVDKSDTIPIPNGVVTNNSGYITNGYMGKGADNDGSGSESGYTTPKKRKARRNSAKGCENLNIVQDKIMQQETSVPTLKQGLETFKPDYSEQKGNRVDGSKPIWKYETGPGGTSRGKPAVGDMLRKSSDSKPGVSSKKFDDRPKGKHASAVASKEDSWTLFKPPPVFPVDNSSAKIVPKISYASKVKENLNKTIQNSSVSPTSSSSSSSSTGETQTQSSSRLSQVPMSALKSVTSANFSNGPVLAGTDGNVYPPGGQPLLTTAANTLTPISSGTDSVLQDMSLTSAAVEQIKTSLFIYPSNMQTMLLSTAQVDLPSQTDQQNLGDIFQNQWGLSFINEPSAGPETVTGKSSEHKVMEVTFQGEYPATLVSQGAEIIPSGTEHPVFPKAYELEKRTSPQVLGSILKSGTTSESGALSLEPSHIGDLQKADTSSQGALVFLSKDYEIESQNPLASPTNTLLGSAKEQRYQRGLERNDSWGSFDLRAAIVYHTKEMESIWNLQKQDPKRIITYNEAMDSPDQ
Regarding B3, the binding entry is “binds”.

B4: PRPF6 (protein, UniProt O94906 1-941)
chain: MNKKKKPFLGMPAPLGYVPGLGRGATGFTTRSDIGPARDANDPVDDRHAPPGKRTVGDQMKKNQAADDDDEDLNDTNYDEFNGYAGSLFSSGPYEKDDEEADAIYAALDKRMDERRKERREQREKEEIEKYRMERPKIQQQFSDLKRKLAEVTEEEWLSIPEVGDARNKRQRNPRYEKLTPVPDSFFAKHLQTGENHTSVDPRQTQFGGLNTPYPGGLNTPYPGGMTPGLMTPGTGELDMRKIGQARNTLMDMRLSQVSDSVSGQTVVDPKGYLTDLNSMIPTHGGDINDIKKARLLLKSVRETNPHHPPAWIASARLEEVTGKLQVARNLIMKGTEMCPKSEDVWLEAARLQPGDTAKAVVAQAVRHLPQSVRIYIRAAELETDIRAKKRVLRKALEHVPNSVRLWKAAVELEEPEDARIMLSRAVECCPTSVELWLALARLETYENARKVLNKARENIPTDRHIWITAAKLEEANGNTQMVEKIIDRAITSLRANGVEINREQWIQDAEECDRAGSVATCQAVMRAVIGIGIEEEDRKHTWMEDADSCVAHNALECARAIYAYALQVFPSKKSVWLRAAYFEKNHGTRESLEALLQRAVAHCPKAEVLWLMGAKSKWLAGDVPAARSILALAFQANPNSEEIWLAAVKLESENDEYERARRLLAKARSSAPTARVFMKSVKLEWVQDNIRAAQDLCEEALRHYEDFPKLWMMKGQIEEQKEMMEKAREAYNQGLKKCPHSTPLWLLLSRLEEKIGQLTRARAILEKSRLKNPKNPGLWLESVRLEYRAGLKNIANTLMAKALQECPNSGILWSEAIFLEARPQRRTKSVDALKKCEHDPHVLLAVAKLFWSQRKITKAREWFHRTVKIDSDLGDAWAFFYKFELQHGTEEQQEEVRKRCESAEPRHGELWCAVSKDIANWQKKIGDILRLVAGRIKNTF
With B4, the binding result is reported as “binds”.

B5: PDS5A (protein, UniProt Q29RF7 1-1337)
chain: MDFTAQPKPATALCGVVSADGKIAYPPGVKEITDKITTDEMIKRLKMVVKTFMDMDQDSEDEKQQYLPLALHLASEFFLRNPNKDVRLLVACCLADIFRIYAPEAPYTSHDKLKDIFLFITRQLKGLEDTKSPQFNRYFYLLENLAWVKSYNICFELEDCNEIFIQLFRTLFSVINNSHNKKVQMHMLDLMSSIIMEGDGVTQELLDSILINLIPAHKNLNKQSFDLAKVLLKRTVQTIEACIANFFNQVLVLGRSSVSDLSEHVFDLIQELFAIDPHLLLSVMPQLEFKLKSNDGEERLAVVRLLAKLFGSKDSDLATQNRPLWQCFLGRFNDIHVPVRLESVKFASHCLMNHPDLAKDLTEYLKVRSHDPEEAIRHDVIVTIITAAKRDLALVNDQLLGFVRERTLDKRWRVRKEAMMGLAQLYKKYCLHGEAGKEAAEKVSWIKDKLLHIYYQNSIDDKLLVEKIFAQYLVPHNLETEERMKCLYYLYASLDPNAVKALNEMWKCQNMLRSHVRELLDLHKQPTSEANCSAMFGKLMTIAKNLPDPGKAQDFVKKFNQVLGDDEKLRSQLELLISPTCSCKQADICVREIARKLANPKQPTNPFLEMVKFLLERIAPVHIDSEAISALVKLMNKSIEGTADDEEEGVSPDTAIRSGLELLKVLSFTHPTSFHSAETYESLLQCLRMEDDKVAEAAIQIFRNTGHKIETDLPQIRSTLIPILHQKAKRGTPHQAKQAVHCIHAIFTNKEVQLAQIFEPLSRSLNADVPEQLITPLVSLGHISMLAPDQFASPMKSVVANFIVKDLLMNDRSTGEKNGKLWSPDEEVSPEVLAKVQAIKLLVRWLLGMKNNQSKSANSTLRLLSAMLVSEGDLTEQKRISKSDMSRLRLAAGSAIMKLAQEPCYHEIITPEQFQLCALVINDECYQVRQIFAQKLHKALVKLLLPLEYMAIFALCAKDPVKERRAHARQCLLKNISIRREYIKQNPMATEKLLSLLPEYVVPYMIHLLAHDPDFTRSQDVDQLRDIKECLWFMLEVLMTKNENNSHAFMKKMAENIKLTRDAQSPDESKTNEKLYTVCDVALCVINSKSALCNADSPKDPVLPMKFFTQPEKDFCNDKSYISEETRVLLLTGKPKPAGVLGAVNKPLSATGRKPYVRSTGTETGSNINVNSELNPSTGNRSREQSSEAAETGVSENEENPVRIISVTPVKNIDPVKNKEINSDQATQGNISSDRGKKRTVTAAGAENIQQKTDEKVDESGPPAPSKPRRGRRPKSESQGNATKNDDLNKPINKGRKRAAVGQESPGGLEAGNAKAPKLQDLAKKAAPAERQIDLQR
Take B5: the binding result is on record as “binds”.

B6: NOP2 (protein, UniProt P46087 1-812)
chain: MGRKLDPTKEKRGPGRKARKQKGAETELVRFLPAVSDENSKRLSSRARKRAAKRRLGSVEAPKTNKSPEAKPLPGKLPKGISAGAVQTAGKKGPQSLFNAPRGKKRPAPGSDEEEEEEDSEEDGMVNHGDLWGSEDDADTVDDYGADSNSEDEEEGEALLPIERAARKQKAREAAAGIQWSEEETEDEEEEKEVTPESGPPKVEEADGGLQINVDEEPFVLPPAGEMEQDAQAPDLQRVHKRIQDIVGILRDFGAQREEGRSRSEYLNRLKKDLAIYYSYGDFLLGKLMDLFPLSELVEFLEANEVPRPVTLRTNTLKTRRRDLAQALINRGVNLDPLGKWSKTGLVVYDSSVPIGATPEYLAGHYMLQGASSMLPVMALAPQEHERILDMCCAPGGKTSYMAQLMKNTGVILANDANAERLKSVVGNLHRLGVTNTIISHYDGRQFPKVVGGFDRVLLDAPCSGTGVISKDPAVKTNKDEKDILRCAHLQKELLLSAIDSVNATSKTGGYLVYCTCSITVEENEWVVDYALKKRNVRLVPTGLDFGQEGFTRFRERRFHPSLRSTRRFYPHTHNMDGFFIAKFKKFSNSIPQSQTGNSETATPTNVDLPQVIPKSENSSQPAKKAKGAAKTKQQLQKQQHPKKASFQKLNGISKGADSELSTVPSVTKTQASSSFQDSSQPAGKAEGIREPKVTGKLKQRSPKLQSSKKVAFLRQNAPPKGTDTQTPAVLSPSKTQATLKPKDHHQPLGRAKGVEKQQLPEQPFEKAAFQKQNDTPKGPQPPTVSPIRSSRPPPAKRKKSQSRGNSQLLLS
Take B6: the binding result was “binds”.
